No constants are given. Whether binding was seen depends on the method and setting. For some of these results: Binding seen in cells or lysates may run through a third protein. Some results given as binding are weak or reduced against the parent protein; the word gives no strength. For some of these results: Tags and fused reporters may be left off the sequences shown.
T1: VAMP8 (human (endogenous in HEK293)) (UniProt Q9BV40)
T1 sequence: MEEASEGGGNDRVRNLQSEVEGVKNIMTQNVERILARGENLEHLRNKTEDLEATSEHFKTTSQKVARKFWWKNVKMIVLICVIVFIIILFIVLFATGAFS

Amino acid sequences for entries named in this document (tags omitted).
UniProt Q15836: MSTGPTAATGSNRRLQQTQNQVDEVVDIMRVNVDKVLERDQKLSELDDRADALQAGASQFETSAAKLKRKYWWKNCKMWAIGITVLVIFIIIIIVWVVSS

T2: STX8 (human (endogenous in HEK293)) (UniProt Q9UNK0)
T2 sequence: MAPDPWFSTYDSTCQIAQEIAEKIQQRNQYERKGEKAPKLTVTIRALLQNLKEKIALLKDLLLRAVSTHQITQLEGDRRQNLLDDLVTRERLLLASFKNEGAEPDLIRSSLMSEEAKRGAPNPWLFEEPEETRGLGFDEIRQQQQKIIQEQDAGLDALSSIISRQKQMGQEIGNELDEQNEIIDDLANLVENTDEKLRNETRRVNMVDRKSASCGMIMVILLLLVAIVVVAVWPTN

T3: ATP11B (human (endogenous in HEK293 and in H9-derived iNeurons)) (UniProt Q9Y2G3)
T3 sequence: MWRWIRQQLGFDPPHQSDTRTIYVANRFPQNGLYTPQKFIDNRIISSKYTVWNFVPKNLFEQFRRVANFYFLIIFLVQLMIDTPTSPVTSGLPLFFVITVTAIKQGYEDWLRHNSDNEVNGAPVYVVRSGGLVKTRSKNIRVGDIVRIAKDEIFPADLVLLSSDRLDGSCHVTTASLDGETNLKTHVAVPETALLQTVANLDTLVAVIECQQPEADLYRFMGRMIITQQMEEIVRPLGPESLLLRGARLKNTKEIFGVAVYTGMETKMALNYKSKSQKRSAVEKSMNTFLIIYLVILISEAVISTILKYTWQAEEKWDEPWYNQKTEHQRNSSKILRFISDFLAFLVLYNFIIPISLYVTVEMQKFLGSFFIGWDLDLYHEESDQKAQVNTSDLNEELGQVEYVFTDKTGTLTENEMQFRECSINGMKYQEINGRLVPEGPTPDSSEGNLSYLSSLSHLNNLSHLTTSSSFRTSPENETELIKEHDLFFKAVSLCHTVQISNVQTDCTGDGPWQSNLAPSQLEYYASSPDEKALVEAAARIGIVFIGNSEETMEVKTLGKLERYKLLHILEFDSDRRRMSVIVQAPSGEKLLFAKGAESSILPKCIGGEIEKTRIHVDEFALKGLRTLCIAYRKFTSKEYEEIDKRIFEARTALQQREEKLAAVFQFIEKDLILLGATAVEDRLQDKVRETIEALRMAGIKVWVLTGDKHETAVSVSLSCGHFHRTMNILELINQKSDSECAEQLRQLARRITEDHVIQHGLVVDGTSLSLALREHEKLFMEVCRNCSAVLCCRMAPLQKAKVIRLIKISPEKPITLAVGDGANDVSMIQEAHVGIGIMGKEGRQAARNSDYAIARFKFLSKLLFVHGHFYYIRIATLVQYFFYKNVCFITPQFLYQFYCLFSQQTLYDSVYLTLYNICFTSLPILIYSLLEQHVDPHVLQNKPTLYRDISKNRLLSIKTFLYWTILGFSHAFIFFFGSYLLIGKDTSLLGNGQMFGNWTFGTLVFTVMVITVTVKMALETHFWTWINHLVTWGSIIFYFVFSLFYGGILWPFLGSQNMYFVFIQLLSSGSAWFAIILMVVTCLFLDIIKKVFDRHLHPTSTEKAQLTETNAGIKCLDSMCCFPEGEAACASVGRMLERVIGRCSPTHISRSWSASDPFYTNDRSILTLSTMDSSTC

T4: 3xFlag-ATP11B (human) (UniProt Q9Y2G3)
T4 sequence: T3 sequence

T5: 3xHA-TMEM230 (human) (UniProt Q96A57)
T5 sequence: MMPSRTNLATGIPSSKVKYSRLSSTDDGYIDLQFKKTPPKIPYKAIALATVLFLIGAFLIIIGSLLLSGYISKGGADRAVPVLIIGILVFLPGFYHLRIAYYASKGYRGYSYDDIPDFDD

T6: 3xHA-TMEM230 triple mutant (Y29C, R78L, X121W) (human) (UniProt Q96A57)
T6 sequence: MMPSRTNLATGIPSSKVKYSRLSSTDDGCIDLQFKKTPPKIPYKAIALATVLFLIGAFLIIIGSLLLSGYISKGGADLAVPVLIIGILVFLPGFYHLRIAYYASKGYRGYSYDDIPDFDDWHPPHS

B1: PTTG1IP (protein, UniProt P53801 33-180)
chain: QEPPGAACSQNTNKTCEECLKNVSCLWCNTNKACLDYPVTSVLPPASLCKLSSARWGVCWVNFEALIITMSVVGGTLLLGIAICCCCCCRRKRSRKPDRSEEKAMREREERRIRQEERRAEMKTRHDEIRKKYGLFKEENPYARFENN
B2: VPS16 (protein, UniProt Q9H269 1-839)
chain: MDCYTANWNPLGDSAFYRKYELYSMDWDLKEELRDCLVAAAPYGGPIALLRNPWRKEKAASVRPVLDIYSASGMPLASLLWKSGPVVSLGWSAEEELLCVQEDGAVLVYGLHGDFRRHFSMGNEVLQNRVLDARIFHTEFGSGVAILTGAHRFTLSANVGDLKLRRMPEVPGLQSAPSCWTVLCQDRVAHILLAVGPDLYLLDHAACSAVTPPGLAPGVSSFLQMAVSFTYRHLALFTDTGYIWMGTASLKEKLCEFNCNIRAPPKQMVWCSRPRSKERAVVVAWERRLMVVGDAPESIQFVLDEDSYLVPELDGVRIFSRSTHEFLHEVPAASEEIFKIASMAPGALLLEAQKEYEKESQKADEYLREIQELGQLTQAVQQCIEAAGHEHQPDMQKSLLRAASFGKCFLDRFPPDSFVHMCQDLRVLNAVRDYHIGIPLTYSQYKQLTIQVLLDRLVLRRLYPLAIQICEYLRLPEVQGVSRILAHWACYKVQQKDVSDEDVARAINQKLGDTPGVSYSDIAARAYGCGRTELAIKLLEYEPRSGEQVPLLLKMKRSKLALSKAIESGDTDLVFTVLLHLKNELNRGDFFMTLRNQPMALSLYRQFCKHQELETLKDLYNQDDNHQELGSFHIRASYAAEERIEGRVAALQTAADAFYKAKNEFAAKATEDQMRLLRLQRRLEDELGGQFLDLSLHDTVTTLILGGHNKRAEQLARDFRIPDKRLWWLKLTALADLEDWEELEKFSKSKKSPIGYLPFVEICMKQHNKYEAKKYASRVGPEQKVKALLLVGDVAQAADVAIEHRNEAELSLVLSHCTGATDGATADKIQRARAQAQKK
B3: TMEM30A (protein, UniProt Q9NV96 1-361)
chain: MAMNYNAKDEVDGGPPCAPGGTAKTRRPDNTAFKQQRLPAWQPILTAGTVLPIFFIIGLIFIPIGIGIFVTSNNIREIEIDYTGTEPSSPCNKCLSPDVTPCFCTINFTLEKSFEGNVFMYYGLSNFYQNHRRYVKSRDDSQLNGDSSALLNPSKECEPYRRNEDKPIAPCGAIANSMFNDTLELFLIGNDSYPIPIALKKKGIAWWTDKNVKFRNPPGGDNLEERFKGTTKPVNWLKPVYMLDSDPDNNGFINEDFIVWMRTAALPTFRKLYRLIERKSDLHPTLPAGRYSLNVTYNYPVHYFDGRKRMILSTISWMGGKNPFLGIAYIAVGSISFLLGVVLLVINHKYRNSSNTADITI
B4: 3xHA-TMEM230 (protein, UniProt Q96A57 1-120)
chain: T5 sequence
B5: TMEM30A-V5 (protein, UniProt Q9NV96 1-361)
chain: B3 chain
B6: 3xFlag-ATP11B (protein, UniProt Q9Y2G3 1-1177)
chain: T3 sequence

Assays:
[1] = target: T1, VAMP8 (human (endogenous in HEK293)); assay: cross-linking; XL-MS: intact early endosomes purified by Endo-IP (FLAG-EEA1, HEK293EL, eluted without detergent) in KPBS, 1 mM DSSO, room temperature, 40 min; XlinkX, 5% FDR
[2] = target: VAMP3 (human (endogenous in HEK293)) (UniProt Q15836); assay: as above
[3] = target: T2, STX8 (human (endogenous in HEK293)); assay: as above
[4] = target: T3, ATP11B (human (endogenous in HEK293 and in H9-derived iNeurons)); assay: native gel or EMSA; BN-MS: endosomal pellets (Endo-IP, HEK293EL) extracted with 0.5% DDM in KPBS, 4-16% NativePAGE at 4°C, 48 slices, DIA-MS; co-migration of elution profiles
3xFlag-ATP11B (human) = target: T4, 3xFlag-ATP11B (human); assay: co-IP; HEK293 cells transfected for 48 h; extraction with 0.5% DDM, 25 mM HEPES pH 7.4, 150 mM NaCl; anti-HA or anti-Flag magnetic beads, 2 h, 4°C; immunoblot
3xHA-TMEM230 (human) = target: T5, 3xHA-TMEM230 (human); assay: as above
[5] = target: T6, 3xHA-TMEM230 triple mutant (Y29C, R78L, X121W) (human); assay: as above

| Binder | binding (3xFlag-ATP11B (human)) | binding (3xHA-TMEM230 (human)) | binding [5] | further results |
| --- | --- | --- | --- | --- |
| B1 | – | – | – | binding [1]: binds; binding [2]: binds |
| B2 | – | – | – | binding [3]: binds |
| B3 | – | – | – | binding [4]: binds |
| B4 | binds | – | – | – |
| B5 | binds | binds | no binding | – |
| B6 | – | binds | no binding | – |

From doi:10.1101/2025.02.07.636106
